This is an account of results in publication PMC11579010.

The chains behind the UniProt entries cited, without tags or fusion partners. Residues count along the entry.
UniProt Q08345, residues 19-913: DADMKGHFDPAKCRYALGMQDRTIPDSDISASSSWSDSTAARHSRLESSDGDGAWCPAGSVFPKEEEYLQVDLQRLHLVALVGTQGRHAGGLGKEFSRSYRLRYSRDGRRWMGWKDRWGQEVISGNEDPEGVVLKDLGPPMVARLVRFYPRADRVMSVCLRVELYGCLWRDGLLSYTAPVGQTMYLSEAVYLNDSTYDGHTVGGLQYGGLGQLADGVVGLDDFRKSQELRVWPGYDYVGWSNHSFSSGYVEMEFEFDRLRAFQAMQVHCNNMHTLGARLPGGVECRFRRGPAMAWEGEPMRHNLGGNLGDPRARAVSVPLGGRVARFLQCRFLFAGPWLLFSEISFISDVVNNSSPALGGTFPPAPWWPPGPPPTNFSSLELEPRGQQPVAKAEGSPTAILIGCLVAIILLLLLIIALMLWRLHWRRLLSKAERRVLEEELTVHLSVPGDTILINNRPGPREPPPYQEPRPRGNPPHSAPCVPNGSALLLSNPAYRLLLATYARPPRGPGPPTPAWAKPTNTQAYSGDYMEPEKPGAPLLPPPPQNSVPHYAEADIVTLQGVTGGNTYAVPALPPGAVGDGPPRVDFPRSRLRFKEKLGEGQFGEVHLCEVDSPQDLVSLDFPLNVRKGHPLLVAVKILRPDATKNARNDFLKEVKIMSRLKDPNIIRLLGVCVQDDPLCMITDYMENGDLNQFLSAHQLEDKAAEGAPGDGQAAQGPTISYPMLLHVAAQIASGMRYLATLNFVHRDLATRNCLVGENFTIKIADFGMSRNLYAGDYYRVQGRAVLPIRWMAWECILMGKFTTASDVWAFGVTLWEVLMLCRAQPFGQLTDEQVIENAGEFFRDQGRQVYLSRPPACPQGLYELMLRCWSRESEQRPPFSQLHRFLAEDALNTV
UniProt P62993: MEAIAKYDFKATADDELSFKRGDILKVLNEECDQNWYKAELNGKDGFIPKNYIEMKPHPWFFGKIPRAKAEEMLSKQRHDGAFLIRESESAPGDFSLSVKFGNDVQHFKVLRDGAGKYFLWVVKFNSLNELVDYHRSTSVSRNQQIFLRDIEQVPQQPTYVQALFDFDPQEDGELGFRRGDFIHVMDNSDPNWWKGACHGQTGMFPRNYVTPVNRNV

These are yes or no findings as the source states them, for the method shown. In cells and extracts the contact can be indirect. These calls come from enrichment with a bait or labelling near it, and not all partners need be listed.

This test has as its target Discoidin domain receptor 1 (DDR1), in cervical cancer cells (human (in SiHa cervical cancer cells; endogenous or oeDDR1 not stated)) (UniProt Q08345). The experiment in a line: affinity purification with mass spectrometry; co-IP of DDR1 (IgG as control) from cervical cancer cells, outcome subjected to mass spectrometry; hits crossed with HitPredict.

With “Growth factor receptor bound protein 2 (GRB2), in cervical cancer cells (from UniProt P62993 1-217)”, the binding result was “binds”.

B1: SHC Adaptor Protein 1 (SHC1), in cervical cancer cells (protein, UniProt P29353 1-583)
chain: MDLLPPKPKYNPLRNESLSSLEEGASGSTPPEELPSPSASSLGPILPPLPGDDSPTTLCSFFPRMSNLRLANPAGGRPGSKGEPGRAADDGEGIVGAAMPDSGPLPLLQDMNKLSGGGGRRTRVEGGQLGGEEWTRHGSFVNKPTRGWLHPNDKVMGPGVSYLVRYMGCVEVLQSMRALDFNTRTQVTREAISLVCEAVPGAKGATRRRKPCSRPLSSILGRSNLKFAGMPITLTVSTSSLNLMAADCKQIIANHHMQSISFASGGDPDTAEYVAYVAKDPVNQRACHILECPEGLAQDVISTIGQAFELRFKQYLRNPPKLVTPHDRMAGFDGSAWDEEEEEPPDHQYYNDFPGKEPPLGGVVDMRLREGAAPGAARPTAPNAQTPSHLGATLPVGQPVGGDPEVRKQMPPPPPCPGRELFDDPSYVNVQNLDKARQAVGGAGPPNPAINGSAPRDLFDMKPFEDALRVPPPPQSVSMAEQLRGEPWFHGKLSRREAEALLQLNGDFLVRESTTTPGQYVLTGLQSGQPKHLLLVDPEGVVRTKDHRFESVSHLISYHMDNHLPIISAGSELCLQQPVERKL
As for B1, the binding entry was “binds”.
